Laboratory results: ChEMBL document CHEMBL2074485, “Identification of thyroid hormone transporters in humans: different molecules are involved in a tissue-specific manner” (Endocrinology, 2001)

Target: T1, Solute carrier organic anion transporter family member 1A4 (Rattus norvegicus, UniProt O35913)
T1 sequence (O35913 whole entry): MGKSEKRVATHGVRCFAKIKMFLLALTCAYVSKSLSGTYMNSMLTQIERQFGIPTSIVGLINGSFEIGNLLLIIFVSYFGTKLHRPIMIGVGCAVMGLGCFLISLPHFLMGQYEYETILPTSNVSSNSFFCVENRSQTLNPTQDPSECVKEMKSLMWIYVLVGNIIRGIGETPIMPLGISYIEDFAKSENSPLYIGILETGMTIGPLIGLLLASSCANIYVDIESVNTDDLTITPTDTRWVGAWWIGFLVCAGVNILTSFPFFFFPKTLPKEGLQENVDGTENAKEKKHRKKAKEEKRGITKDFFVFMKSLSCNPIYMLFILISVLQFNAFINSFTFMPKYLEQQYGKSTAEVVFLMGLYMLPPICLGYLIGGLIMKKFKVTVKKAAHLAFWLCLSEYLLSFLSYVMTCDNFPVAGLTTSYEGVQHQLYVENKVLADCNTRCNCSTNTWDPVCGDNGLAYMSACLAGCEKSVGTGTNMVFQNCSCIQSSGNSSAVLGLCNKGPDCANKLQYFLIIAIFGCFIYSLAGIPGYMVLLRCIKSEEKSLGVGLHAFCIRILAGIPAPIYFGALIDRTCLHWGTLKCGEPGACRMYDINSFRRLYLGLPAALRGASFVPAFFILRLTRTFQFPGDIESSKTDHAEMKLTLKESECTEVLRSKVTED
Experiment: TP_TRANSPORTER: inhibition of Digoxin uptake in Xenopus laevis oocytes

Ki: 1800 nM
SMILES: CCCCc1oc2ccccc2c1C(=O)c1cc(I)c(OCCN(CC)CC)c(I)c1 [AMIODARONE]
